Results as given in publication PMC8917353.
Where a chain is given by its changes, count along the chain named. Results are given in words; binding and its absence hold for the method and conditions named. Binding seen in cells or lysates may run through a third protein. Some binding calls cover weakened binding; strength is not graded here.

Amino acid sequences for entries named in this document (tags omitted).
UniProt P62834: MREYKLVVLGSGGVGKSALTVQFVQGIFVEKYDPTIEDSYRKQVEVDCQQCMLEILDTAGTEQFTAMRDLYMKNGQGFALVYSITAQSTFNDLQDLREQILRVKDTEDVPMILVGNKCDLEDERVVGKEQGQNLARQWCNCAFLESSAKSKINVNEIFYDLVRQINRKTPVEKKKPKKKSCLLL
UniProt Q9BSQ5: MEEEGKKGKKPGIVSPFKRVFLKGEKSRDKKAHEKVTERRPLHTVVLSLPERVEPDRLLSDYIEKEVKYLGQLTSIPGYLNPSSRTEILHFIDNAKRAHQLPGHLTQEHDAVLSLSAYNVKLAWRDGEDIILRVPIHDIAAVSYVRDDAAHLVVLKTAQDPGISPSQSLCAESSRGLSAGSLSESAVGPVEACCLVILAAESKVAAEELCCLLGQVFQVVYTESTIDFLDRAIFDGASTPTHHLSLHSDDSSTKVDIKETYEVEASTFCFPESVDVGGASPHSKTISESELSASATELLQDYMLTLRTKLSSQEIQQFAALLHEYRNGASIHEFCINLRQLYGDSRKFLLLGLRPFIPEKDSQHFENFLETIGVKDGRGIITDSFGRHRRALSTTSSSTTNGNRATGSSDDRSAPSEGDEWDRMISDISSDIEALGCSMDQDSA

Key:
[1] = target: T1, mCherry-KRIT1 192APAA195 R452E (UniProt O00522); test: co-IP; HEK293A co-transfected with mCherry-KRIT1 construct and CCM2-Myc/His; 300 µg lysate, anti-mCherry on Protein G agarose, overnight 4°C; blot for Myc
T1 sequence: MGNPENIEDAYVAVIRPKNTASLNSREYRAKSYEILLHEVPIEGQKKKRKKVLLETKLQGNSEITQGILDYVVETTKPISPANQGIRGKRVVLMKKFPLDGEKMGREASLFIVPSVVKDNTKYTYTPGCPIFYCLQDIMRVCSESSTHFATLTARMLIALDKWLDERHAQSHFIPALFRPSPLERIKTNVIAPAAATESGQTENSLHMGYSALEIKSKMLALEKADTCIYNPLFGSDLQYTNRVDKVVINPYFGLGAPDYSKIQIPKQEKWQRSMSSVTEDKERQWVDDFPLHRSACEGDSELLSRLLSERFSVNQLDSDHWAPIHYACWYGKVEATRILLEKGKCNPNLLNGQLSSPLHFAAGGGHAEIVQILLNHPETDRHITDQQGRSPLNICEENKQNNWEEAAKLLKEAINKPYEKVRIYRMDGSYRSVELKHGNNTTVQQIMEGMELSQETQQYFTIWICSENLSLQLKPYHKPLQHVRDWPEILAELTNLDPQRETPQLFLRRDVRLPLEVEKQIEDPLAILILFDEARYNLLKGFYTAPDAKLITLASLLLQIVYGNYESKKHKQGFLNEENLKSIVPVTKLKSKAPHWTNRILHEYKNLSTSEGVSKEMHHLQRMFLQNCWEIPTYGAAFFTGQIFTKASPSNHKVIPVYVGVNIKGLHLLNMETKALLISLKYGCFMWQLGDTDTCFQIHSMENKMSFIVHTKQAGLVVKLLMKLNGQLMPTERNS

[2] = target: T2, mCherry-KRIT1 192NPAY195 to 192APAA195 (UniProt O00522); test: as above
T2 sequence: T1 sequence with E452R

[3] = target: mCherry-tagged KRIT1 (WT) (UniProt O00522); test: as above
[4] = target: T3, membrane-targeted mCherry-KRIT1 192APAA195 R452E with the Rap1 polybasic region and CAAX box (…) at the C-terminus (UniProt O00522); test: as above
T3 sequence (chain, C-terminal geranylgeranylation (GG) at the CAAX box): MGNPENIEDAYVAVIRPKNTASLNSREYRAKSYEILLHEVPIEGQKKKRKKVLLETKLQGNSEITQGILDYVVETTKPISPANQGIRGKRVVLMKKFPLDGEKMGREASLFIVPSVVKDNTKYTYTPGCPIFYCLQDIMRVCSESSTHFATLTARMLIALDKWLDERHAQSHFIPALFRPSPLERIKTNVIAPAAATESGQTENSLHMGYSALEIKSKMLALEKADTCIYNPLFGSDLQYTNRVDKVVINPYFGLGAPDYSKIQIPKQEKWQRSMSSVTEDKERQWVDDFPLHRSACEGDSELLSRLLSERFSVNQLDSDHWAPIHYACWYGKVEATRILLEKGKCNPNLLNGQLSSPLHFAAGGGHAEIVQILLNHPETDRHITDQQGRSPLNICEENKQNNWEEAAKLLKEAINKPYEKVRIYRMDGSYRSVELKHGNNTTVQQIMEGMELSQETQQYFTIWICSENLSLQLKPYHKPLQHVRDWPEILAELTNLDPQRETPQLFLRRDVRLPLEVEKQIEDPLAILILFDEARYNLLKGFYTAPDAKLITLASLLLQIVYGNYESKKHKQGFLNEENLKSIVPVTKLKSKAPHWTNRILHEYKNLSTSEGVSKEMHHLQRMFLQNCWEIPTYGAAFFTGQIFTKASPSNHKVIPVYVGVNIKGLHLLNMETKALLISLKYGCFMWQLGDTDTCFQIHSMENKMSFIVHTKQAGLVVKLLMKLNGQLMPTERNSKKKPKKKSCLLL

GST-Rap1a = GST-Rap1a (UniProt P62834); test: pull-down; 10 µg GST-Rap1a on GSH-Sepharose beads loaded with 1 mM GTPγS; 300 µg HEK293A lysate with mCherry-KRIT1 constructs, 5 mM DTT, 4°C overnight; washes in lysis buffer with 250 mM NaCl and 5 mM DTT; blot for KRIT1; only the target purified

Row | Substance | binding [1] | binding [2] | binding [3] | binding [4] | binding (GST-Rap1a)
1 | CCM2-Myc/His (from UniProt Q9BSQ5 1-444) | binds | binds | binds | binds | 
2 | mCherry-tagged KRIT1 (WT) (from UniProt O00522 1-736) |  |  |  |  | binds
3 | mCherry-KRIT1-R452E (from UniProt O00522 1-736) |  |  |  |  | binds weakly
